Source: PubChem BioAssay AID180 (DTP/NCI, 2004)
The list is a part of this screen's results and no random one: it gathers tests that were run many times, whatever their T/C, doses with no T/C, and many T/C values between a quarter and a half above the control. Further doses and runs are listed elsewhere. T/C: endpoint of the treated group in % of that of the vehicle group. Schedules are NCI's codes, read here as Q, the interval in days (D) or hours (H), X, the number of doses. Some T/C values are followed by the survivors on the day toxicity was checked, most often the fifth; where none is given, no animal had died by that day. Some doses were run more than once; the values are given in rising order. Some doses have a count of surviving animals in place of a T/C: the source holds a T/C of zero for them, seemingly a mark for toxic or unscored doses. Counts of survivors are from the toxicity check (mostly the fifth day) where no day follows; animals may have died later. Some schedules carry Z or #; the key to these is not given.

Tested on: BDF1 mice, Adenocarcinoma 755 s.c., tumor weight T/C
Assay: NCI In Vivo Anticancer Drug Screen. Data for tumor model Adenocarcinoma 755 (subcutaneous) in B6D2F1 (BDF1) mice
Details: T/C endpoint: mean tumor weight, higher T/C = larger tumour; for T/C: evaluated on day 12
Method in brief: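 Compound activity was tested in mice carrying transplanted tumors. Survival or tumor size was measured, and each value is the treated-group measurement divided by that of the vehicle-treated control group (T/C).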

[1] = dose: 75.0 mg/kg/injection, schedule: Q01DX011 (ip), vehicle: methylcellulose (MC)
[2] = dose: 225.0 mg/kg/injection, schedule: Q01DX011 (ip), vehicle: methylcellulose (MC)
[3] = dose: 50.0 mg/kg/injection, schedule: Q01DX011 (ip), vehicle: carboxymethylcellulose (CMC)
[4] = dose: 62.5 mg/kg/injection, schedule: Q01DX011 (ip), vehicle: methylcellulose (MC)
[5] = dose: 116.0 mg/kg/injection, schedule: Q01DX011 (ip), vehicle: carboxymethylcellulose (CMC)

Q: Which survivor count (dose: 4.0 mg/kg/injection, schedule: Q01DX011 (ip), vehicle: carboxymethylcellulose (CMC)) does the source give for `Nc1nc(=S)c2ncn(C3OC(CO)C(O)C3O)c2[nH]1` (stereo not drawn) here?
A: 5 of 10

Q: And the survivor count (dose: 6.0 mg/kg/injection, schedule: Q01DX011 (ip), vehicle: methylcellulose (MC))?
A: 5 of 10

Q: And the survivor count (dose: 6.6 mg/kg/injection, schedule: Q01DX011 (ip), vehicle: carboxymethylcellulose (CMC))?
A: 1 of 10

Q: `O=[N+]([O-])c1ccc(C=Nc2ccc3c(c2)C(Br)c2ccccc2-3)cc1` (stereo not drawn) was tested. Which survivor count (dose: 880.0 mg/kg/injection, schedule: Q01DX011 (ip), vehicle: saline) did it give?
A: 3 of 10

Q: With `CCC1CN1P(=S)(N1CC1CC)N1CC1CC` (stereo not drawn) as the molecule, how does the survivor count (dose: 226.0 mg/kg/injection, schedule: Q01DX011 (ip), vehicle: saline) read?
A: 0 of 10

Q: How did the survivor count (dose: 120.0 mg/kg/injection, schedule: Q01DX011 (ip), vehicle: carboxymethylcellulose (CMC)) turn out when `CSc1ncn(C)c2ncnc1-2` was run?
A: 5 of 10

Q: For `CC1CN1P(=O)(N1CCCCC1)N1CC1C` (stereo not drawn), which survivor count (dose: 96.0 mg/kg/injection, schedule: Q01DX011 (ip), vehicle: saline) is on record?
A: 4 of 10

Q: `Cn1c(=O)c2c(nc(C(=N)SCC(=O)O)n2C)n(C)c1=O` was tested. Which survivor count [1] did it give?
A: 5 of 10

Q: What about the survivor count [2] of the same molecule?
A: 1 of 10

Q: With `CC(C)CCS(=O)(=O)OCCCCOS(=O)(=O)CCC(C)C` as the molecule, how does the survivor count (dose: 600.0 mg/kg/injection, schedule: Q01DX011 (ip), vehicle: methylcellulose (MC)) read?
A: 4 of 10

Q: What about the survivor count (dose: 800.0 mg/kg/injection, schedule: Q01DX011 (ip), vehicle: methylcellulose (MC)) of the same molecule?
A: 6 of 10

Q: `Clc1ncnc2c1ncn2C1CCCS1` (stereo not drawn) was tested. Which T/C [1] did it give?
A: 133 % of control

Q: What about the survivor count [2] of the same molecule?
A: 5 of 10

Q: With `O=P1(N(CCF)CCF)NCCCO1` (stereo not drawn) as the molecule, how does the survivor count (dose: 30.0 mg/kg/injection, schedule: Q01DX011 (ip), vehicle: saline) read?
A: 4 of 10

Q: What does the source list for `Nc1n[se]nc1C(=O)O`?
A: survivor count (dose: 1.5 mg/kg/injection, schedule: Q01DX011 (ip), vehicle: carboxymethylcellulose (CMC)): 5 of 10; survivor count (dose: 2.0 mg/kg/injection, schedule: Q01DX011 (ip), vehicle: carboxymethylcellulose (CMC)): 0 of 10; survivor count (dose: 3.0 mg/kg/injection, schedule: Q01DX011 (ip), vehicle: carboxymethylcellulose (CMC)): 0 of 10

Q: For `O=C1C(=O)C(Cl)=C(Cl)C(Cl)=C1Cl`, which T/C (dose: 30.0 mg/kg/injection, schedule: Q01DX011 (ip), vehicle: carboxymethylcellulose (CMC)) is on record?
A: 139 % of control [9 of 10 alive]

Q: Which T/C (dose: 12.5 mg/kg/injection, schedule: Q01DX011 (ip), vehicle: carboxymethylcellulose (CMC)) does the source give for `O=C(CCCCC(=O)Nc1ccc(C(=O)Nc2cc(C3=NCCN3)cc(C3=NCCN3)c2)cc1)Nc1ccc(C(=O)Nc2cc(C3=NCCN3)cc(C3=NCCN3)c2)cc1` here?
A: 42 [7 of 10 alive], 74 [7 of 10 alive], 78 [9 of 10 alive], 81 % of control

Q: And the T/C (dose: 25.0 mg/kg/injection, schedule: Q01DX011 (ip), vehicle: carboxymethylcellulose (CMC))?
A: 50, 63, 78, 97 % of control [9 of 10 alive]

Q: And the T/C [3]?
A: 32, 49 [9 of 10 alive], 76 % of control [9 of 10 alive]

Q: What about the survivor count [3] of the same molecule?
A: 6 of 10

Q: And the T/C (dose: 100.0 mg/kg/injection, schedule: Q01DX011 (ip), vehicle: carboxymethylcellulose (CMC))?
A: 26 [7 of 10 alive], 30 [8 of 10 alive], 45 [9 of 10 alive], 70 % of control [8 of 10 alive]

Q: What about the survivor count (dose: 200.0 mg/kg/injection, schedule: Q01DX011 (ip), vehicle: carboxymethylcellulose (CMC)) of the same molecule?
A: 4 of 10 and 5 of 10

Q: Which T/C (dose: 29.53 mg/kg/injection, schedule: Q01DX011 (ip), vehicle: carboxymethylcellulose (CMC)) does the source give for `Cc1ncc(CO)c(C)c1O` here?
A: 134 % of control [9 of 10 alive]

Q: What about the survivor count [4] of the same molecule?
A: 1 of 10

Q: What about the survivor count (dose: 200.0 mg/kg/injection, schedule: Q01DX011 (ip), vehicle: saline) of the same molecule?
A: 4 of 10

Q: And the survivor count (dose: 250.0 mg/kg/injection, schedule: Q01DX011 (ip), vehicle: methylcellulose (MC))?
A: 2 of 10

Q: And the survivor count (dose: 300.0 mg/kg/injection, schedule: Q01DX011 (ip), vehicle: saline)?
A: 0 of 10

Q: And the survivor count (dose: 400.0 mg/kg/injection, schedule: Q01DX011 (ip), vehicle: saline)?
A: 0 of 10

Q: How did the T/C [5] turn out when `Cn1c(=O)c2[nH]cnc2n(C)c1=O` was run?
A: 131 % of control [8 of 10 alive]

Q: What about the survivor count [5] of the same molecule?
A: 6 of 10

Q: And the survivor count (dose: 126.0 mg/kg/injection, schedule: Q01DX011 (ip), vehicle: carboxymethylcellulose (CMC))?
A: 2 of 10

Q: Which T/C (dose: 2.0 mg/kg/injection, schedule: Q01DX011 (ip), vehicle: other) does the source give for `CN(C)S(=O)(=O)c1ncnc2nc[nH]c12` here?
A: 138 % of control [9 of 10 alive]

Q: What about the T/C (dose: 8.0 mg/kg/injection, schedule: Q01DX011 (ip), vehicle: other) of the same molecule?
A: 126 % of control [9 of 10 alive]

Q: What does the source list for `Nc1ccc2cc3ccccc3cc2c1`?
A: survivor count (dose: 42.0 mg/kg/injection, schedule: Q01DX011 (ip), vehicle: carboxymethylcellulose (CMC)): 4 of 10; survivor count (dose: 84.0 mg/kg/injection, schedule: Q01DX011 (ip), vehicle: carboxymethylcellulose (CMC)): 0 of 10

Q: With `COC(=O)C1C2CC3c4[nH]c5cc(OC)ccc5c4CCN3CC2CC(OC(=O)c2cc(OC)c(OC)c(OC)c2)C1OC` (stereo not drawn) as the molecule, how does the T/C (dose: 0.25 mg/kg/injection, schedule: Q01DX011 (ip), vehicle: saline) read?
A: 132 % of control

Q: And the T/C (dose: 1.0 mg/kg/injection, schedule: Q01DX011 (ip), vehicle: saline)?
A: 129 % of control

Q: Which survivor count (dose: 500.0 mg/kg/injection, schedule: Q01DX011 (ip), vehicle: methylcellulose (MC)) does the source give for `Nc1nc(NCc2ccccc2)cc(=O)[nH]1` here?
A: 5 of 10

Q: Which results are given for `Clc1ncnc2nc[nH]c12`?
A: survivor count (dose: 200.0 mg/kg/injection, schedule: Q01DX011 (ip), vehicle: methylcellulose (MC)): 6 of 10; survivor count (dose: 400.0 mg/kg/injection, schedule: Q01DX011 (ip), vehicle: carboxymethylcellulose (CMC)): 1 of 10; survivor count (dose: 400.0 mg/kg/injection, schedule: Q01DX011 (ip), vehicle: methylcellulose (MC)): 1 of 10; survivor count (dose: 600.0 mg/kg/injection, schedule: Q01DX011 (im), vehicle: carboxymethylcellulose (CMC)): 0 of 10; survivor count (dose: 600.0 mg/kg/injection, schedule: Q01DX011 (sc), vehicle: carboxymethylcellulose (CMC)): 0 of 10; survivor count (dose: 600.0 mg/kg/injection, schedule: Q03DX004 (ip), vehicle: carboxymethylcellulose (CMC)): 0 of 10; survivor count (dose: 700.0 mg/kg/injection, schedule: Q01DX001 (ip), vehicle: carboxymethylcellulose (CMC)): 0 of 10; survivor count (dose: 700.0 mg/kg/injection, schedule: Q07DX002 (ip), vehicle: carboxymethylcellulose (CMC)): 0 of 10; survivor count (dose: 800.0 mg/kg/injection, schedule: Q01DX011 (oral), vehicle: carboxymethylcellulose (CMC)): 0 of 10; survivor count (dose: 1400.0 mg/kg/injection, schedule: Q01DX001 (ip), vehicle: carboxymethylcellulose (CMC)): 0 of 10; survivor count (dose: 1400.0 mg/kg/injection, schedule: Q07DX002 (ip), vehicle: carboxymethylcellulose (CMC)): 0 of 10

Q: Which survivor count (dose: 31.25 mg/kg/injection, schedule: Q#A X022 (ip), vehicle: methylcellulose (MC)) does the source give for `O=c1[nH]cnc2n[nH]nc12` here?
A: 2 of 10

Q: What about the survivor count [4] of the same molecule?
A: 1 of 10

Q: What about the survivor count (dose: 125.0 mg/kg/injection, schedule: Q02DX006 (ip), vehicle: methylcellulose (MC)) of the same molecule?
A: 5 of 10

Q: And the survivor count (dose: 250.0 mg/kg/injection, schedule: Q01DX011 (oral), vehicle: methylcellulose (MC))?
A: 5 of 10

Q: How did the survivor count (dose: 375.0 mg/kg/injection, schedule: Q01DX011 (ip), vehicle: water) turn out when `Nc1cccc2c(=O)[nH][nH]c(=O)c12` was run?
A: 6 of 10

Q: How did the survivor count (dose: 113.0 mg/kg/injection, schedule: Q01DX011 (ip), vehicle: methylcellulose (MC)) turn out when `O=C(CCBr)NCNC(=O)CCBr` was run?
A: 5 of 10

Q: `FC(F)(F)c1nc(Cl)nc2c1ncn2Cc1ccccc1` was tested. Which survivor count (dose: 240.0 mg/kg/injection, schedule: Q01DX011 (ip), vehicle: carboxymethylcellulose (CMC)) did it give?
A: 5 of 10
